Results from patent US20190144541A1.
No constants are given. Whether binding was seen depends on the method and setting. Some results given as binding are weak or reduced against the parent protein; the word gives no strength.

Protein sequences, listed by entry. Tags and fused reporters are not part of them. Residues count along the entry.
UniProt Q15116, residues 25-167: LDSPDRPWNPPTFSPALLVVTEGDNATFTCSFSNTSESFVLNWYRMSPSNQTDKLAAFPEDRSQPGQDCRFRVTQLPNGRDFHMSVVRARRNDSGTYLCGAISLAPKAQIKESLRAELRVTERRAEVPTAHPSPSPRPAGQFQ

Tests used:
PD-1-His [1] = target: PD-1-His (UniProt Q15116); assay: competition ELISA: antibody premixed with 4 ug/mL PD1-His, added to coated PDL1-Fc, bound PD1-His detected with anti-His-HRP
PD-1-His [2] = target: PD-1-His (UniProt Q15116); assay: ELISA, PD-1-His coated at 60 ng/well, antibody from 16 ug/mL in 4-fold dilutions, anti-human Fc-HRP detection
PD-1-His [3] = target: PD-1-His (UniProt Q15116); assay: ELISA on coated PD-1-His (60 ng/well), anti-human Fc-HRP
PD-1 on PD1-CHO cells = assay: cell ELISA on fixed PD1-CHO cells, anti-human Fc-HRP

binding (PD-1-His [1]): binds
binding (PD-1-His [2]): binds
binding (PD-1-His [3]): binds
binding (PD-1 on PD1-CHO cells): binds
B1: DFPD1-12 full-length anti-PD-1 monoclonal antibody (antibody, human IgG4 S228P, kappa, V domains shown)
VH: QVQLVESGGGVVQPGRSLRLDCKASGITFSNYGMHWVRQAPGKGLEWVAVIWYDGSKKYYADSVKGRFTISRDNSKNTLFLQMNSLRAEDTAVYYCATNNDYWGQGTLVTVSS
VL: DIQMTQSPSSLSASVGDRVTITCRASQSIHNYLDWYQQKPGKAPKLLIYNASTRATGVPSRFSGSGSGTDFTLTISSLQPEDFATYYCQQELHLPLTFGQGTKVEIKR
